Laboratory results published in article PMC7758050.
No constants are given. Whether binding was seen depends on the method and setting. Binding seen in cells or lysates may run through a third protein. Some binding calls cover weakened binding; strength is not graded here. For some assays here: Where a sequence is shown, tags or fusion partners need not be part of it.

The chains behind the UniProt entries cited, without tags or fusion partners.
UniProt Q9UM11: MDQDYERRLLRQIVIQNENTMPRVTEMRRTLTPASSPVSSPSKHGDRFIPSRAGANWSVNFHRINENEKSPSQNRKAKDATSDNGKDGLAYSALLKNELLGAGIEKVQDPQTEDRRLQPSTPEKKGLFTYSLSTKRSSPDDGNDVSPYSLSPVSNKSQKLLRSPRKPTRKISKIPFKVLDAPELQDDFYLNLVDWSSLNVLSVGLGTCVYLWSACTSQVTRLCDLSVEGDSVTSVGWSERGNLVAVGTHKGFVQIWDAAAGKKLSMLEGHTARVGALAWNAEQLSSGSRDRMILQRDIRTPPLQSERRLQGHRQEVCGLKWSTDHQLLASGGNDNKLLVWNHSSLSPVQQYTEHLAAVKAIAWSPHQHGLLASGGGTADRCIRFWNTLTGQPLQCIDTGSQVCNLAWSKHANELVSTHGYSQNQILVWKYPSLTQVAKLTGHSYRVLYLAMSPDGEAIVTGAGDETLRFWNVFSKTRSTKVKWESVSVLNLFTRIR

Columns and labels:
[1] = target: Endogenous Cdh1 (human (endogenous in HeLa S3)) (UniProt Q9UM11); assay: co-IP; endogenous proteins; HeLa S3 synchronized by nocodazole block, collected 0 h and 1 h after release; phosphate lysis buffer; α-Cdh1 (clone DCS-266) or control mouse IgG overnight at 4°C, Protein G magnetic beads; immunoblot
HA-Cdh1 = HA-Cdh1 (UniProt Q9UM11); assay: co-IP; transiently transfected HEK-293T treated with proteasome inhibitor (MG-132) before harvest; NETN lysis; IP 2-4 h at 4°C with M2- or Myc-antibody beads (α-HA IP in Fig 4D); washes in NETN with additional 1% Triton X-100; immunoblot

binding [1]	binding (HA-Cdh1)	Binder
binds	–	Endogenous UHRF1 (ubiquitin-like with PHD and RING finger domains 1) (protein, UniProt Q96T88 1-793) MWIQVRTMDGRQTHTVDSLSRLTKVEELRRKIQELFHVEPGLQRLFYRGKQMEDGHTLFDYEVRLNDTIQLLVRQSLVLPHSTKERDSELSDTDSGCCLGQSESDKSSTHGEAAAETDSRPADEDMWDETELGLYKVNEYVDARDTNMGAWFEAQVVRVTRKAPSRDEPCSSTSRPALEEDVIYHVKYDDYPENGVVQMNSRDVRARARTIIKWQDLEVGQVVMLNYNPDNPKERGFWYDAEISRKRETRTARELYANVVLGDDSLNDCRIIFVDEVFKIERPGEGSPMVDNPMRRKSGPSCKHCKDDVNRLCRVCACHLCGGRQDPDKQLMCDECDMAFHIYCLDPPLSSVPSEDEWYCPECRNDASEVVLAGERLRESKKKAKMASATSSSQRDWGKGMACVGRTKECTIVPSNHYGPIPGIPVGTMWRFRVQVSESGVHRPHVAGIHGRSNDGAYSLVLAGGYEDDVDHGNFFTYTGSGGRDLSGNKRTAEQSCDQKLTNTNRALALNCFAPINDQEGAEAKDWRSGKPVRVVRNVKGGKNSKYAPAEGNRYDGIYKVVKYWPEKGKSGFLVWRYLLRRDDDEPGPWTKEGKDRIKKLGLTMQYPEGYLEALANREREKENSKREEEEQQEGGFASPRTGKGKWKRKSAGGGPSRAGSPRRTSKKTKVEPYSLTAQQSSLIREDKSNAKLWNEVLASLKDRPASGSPFQLFLSKVEETFQCICCQELVFRPITTVCQHNVCKDCLDRSFRAQVFSCPACRYDLGRSYAMQVNQPLQTVLNQLFPGYGNGR
–	binds	Myc-UHRF1^WT (protein, UniProt Q96T88 1-793) MWIQVRTMDGRQTHTVDSLSRLTKVEELRRKIQELFHVEPGLQRLFYRGKQMEDGHTLFDYEVRLNDTIQLLVRQSLVLPHSTKERDSELSDTDSGCCLGQSESDKSSTHGEAAAETDSRPADEDMWDETELGLYKVNEYVDARDTNMGAWFEAQVVRVTRKAPSRDEPCSSTSRPALEEDVIYHVKYDDYPENGVVQMNSRDVRARARTIIKWQDLEVGQVVMLNYNPDNPKERGFWYDAEISRKRETRTARELYANVVLGDDSLNDCRIIFVDEVFKIERPGEGSPMVDNPMRRKSGPSCKHCKDDVNRLCRVCACHLCGGRQDPDKQLMCDECDMAFHIYCLDPPLSSVPSEDEWYCPECRNDASEVVLAGERLRESKKKAKMASATSSSQRDWGKGMACVGRTKECTIVPSNHYGPIPGIPVGTMWRFRVQVSESGVHRPHVAGIHGRSNDGAYSLVLAGGYEDDVDHGNFFTYTGSGGRDLSGNKRTAEQSCDQKLTNTNRALALNCFAPINDQEGAEAKDWRSGKPVRVVRNVKGGKNSKYAPAEGNRYDGIYKVVKYWPEKGKSGFLVWRYLLRRDDDEPGPWTKEGKDRIKKLGLTMQYPEGYLEALANREREKENSKREEEEQQEGGFASPRTGKGKWKRKSAGGGPSRAGSPRRTSKKTKVEPYSLTAQQSSLIREDKSNAKLWNEVLASLKDRPASGSPFQLFLSKVEETFQCICCQELVFRPITTVCQHNVCKDCLDRSFRAQVFSCPACRYDLGRSYAMQVNQPLQTVLNQLFPGYGNGR
